Here are results for eight substances from article PMC5557808 (Nature Communications, 2017).

This data set is described as follows: general procedure: Fmoc solid-phase peptide synthesis; different resins: Fmoc-Gln(Trt)-Wang, Fmoc-Rink-Amid-PEG-AM, Fmoc-Rink-Amid-AM, Fmoc-Rink-Amid-PS-AM, 2-chlorotrityl chl. Particulars: whole synthesis.
A( N3)-GPQGIA GQ-K-De: the “final HPLC purity” value worked out at 89.2%. In the case of Cf-(GPQGIA GQ)2-A( N3) it was 96.5%; in that of Cf-(GPQGIA GQ)3-A( N3), 99.1%; in that of Cf-GPLGI AGQ-A( N3)-Q, 78.2%. Take Cf-GPQGYAGQ-A( N3)-Q: the “final HPLC purity” value is 56.4%.

With De-GPQGIAGQ-A( N3)-Q, the “final HPLC purity” value is 94.8%. With G-PQGIAGQ-A( N3)-Q, the “final HPLC purity” value came out at 78.2%.

With G-PQGIAGQ-A-Q, the “final HPLC purity” value came out at 91.6%.
